Article PMC6712659
Results are given in words; binding and its absence hold for the method and conditions named. Binding seen in cells or lysates may run through a third protein. Here binding means that the protein was enriched with, or labelled near, the bait; the list need not be complete. Tags and fused reporters may be left off the sequences shown.

Biological target: T1, soluble recombinant CLEC10A (extracellular part of human C-type glycoreceptor CLEC10A, myc-tagged) (human) (UniProt Q8IUN9)
T1 sequence: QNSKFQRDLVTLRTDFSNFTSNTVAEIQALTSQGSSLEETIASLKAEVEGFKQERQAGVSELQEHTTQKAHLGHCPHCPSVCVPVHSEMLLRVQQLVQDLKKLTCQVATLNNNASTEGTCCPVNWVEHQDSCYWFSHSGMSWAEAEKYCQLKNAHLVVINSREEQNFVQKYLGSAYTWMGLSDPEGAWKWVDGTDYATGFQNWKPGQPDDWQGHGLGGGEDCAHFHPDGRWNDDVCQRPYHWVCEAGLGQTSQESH
Test: affinity purification with mass spectrometry; myc-tagged CLEC10A held on anti c-myc agarose beads; 300 ug total protein lysate of two CLEC10A-positive breast tumors; binding buffer TBS, 0.1% Triton-X100, 1 mM CaCl2, 2 mM MgCl2; eluted with TBS, 10 mM EDTA (pH 7.4); SDS-PAGE, silver staining, gel slices to mass spectrometry; only the target purified

For thrombospondin, the binding was “binds”.

fibulin was tested, and the binding was “binds”.

MUC16 (from UniProt Q8WXI7 1-14507) was tested, and the binding was “binds”.
